{"source": "PubChem BioAssay AID1347076", "about": "(National Center for Advancing Translational Sciences (NCATS), 2019)", "note": "About 13,000 (3.2%) of roughly 400,000 compounds were called active. Inconclusive means that the source gave no clear call. Such entries were picked first, then a sample of the others. The call rests on the fitted dose curve; in most records, active means well fitted cell-killing curve with a large enough effect; inconclusive means small, poorly fitted or top-dose-only effect, or effect the other way; inactive means flat fitted curve, though single readings scatter. A potency beside an inconclusive call is a rough fit, not a confirmed value. Potency means the concentration at half of the fitted maximal effect.", "data": [{"assay": "qHTS assay for MDR1-selective chemotherapeutics: Primary screen using the drug-selected MDR subline cells KB-V1; further: nearly all actives have a fitted effect of over 60% in size", "conditions": "KB-V1 MDR cells viability, CellTiter-Glo, 72 h; series mostly up to 46.1 µM", "summary_of_the_method": "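qHTS viability screen in drug-selected KB-V1 MDR cells: 72 h compound treatment at 37 degrees C, ATP luminescence end point.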", "values": [{"smiles": "CCOc1ccccc1-n1nnnc1SCc1nc2ccccc2s1", "Potency": "inconclusive: 14.6 µM [cytotoxic, partial curve, poor fit]"}, {"smiles": "COc1ccc(C2C3=C(OC(C)=O)c4ccccc4C3=Nc3c2c(=O)n(C)c(=O)n3C)cc1", "note": "(centres undefined)", "Potency": "inconclusive: 0.58 µM [cytotoxic, full curve]"}, {"smiles": "O=C(CCNC(=O)Cn1ccc2ccccc2c1=O)NCCCN1CCN(c2ccc(F)cc2)CC1", "Potency": "inactive"}, {"smiles": "CCCCNC(=O)C(NC(=O)c1cccnc1OC)C(=O)c1ccccc1", "note": "(centres undefined)", "Potency": "inconclusive: 7.31 µM [cytotoxic, partial curve]"}, {"smiles": "Cc1ccc(-n2c(C)cc(C(=O)COC(=O)C3=NNC(=O)CC3)c2C)cc1", "Potency": "inconclusive: 29.1 µM [cytotoxic, single point]"}, {"smiles": "COc1ccc(OC)c(NC(=O)CSc2nccn2-c2cc(C)cc(C)c2)c1", "Potency": "inconclusive: 29.1 µM [cytotoxic, single point]"}, {"smiles": "OC[C@@H]1[C@@H](c2ccccc2)C(c2ccccc2)=NN1c1ccccc1", "Potency": "inactive"}, {"smiles": "C=CCNC(=O)c1snnc1-c1ccccc1", "Potency": "inconclusive: 29.1 µM [rising, single point]"}, {"smiles": "N#Cc1nc(-c2ccc(OCc3ccccc3Cl)cc2)oc1N1CCC(C(N)=O)CC1", "Potency": "inconclusive: 29.1 µM [rising, single point]"}, {"smiles": "CCOC(=O)c1c(C)oc2ccc(OC(=O)N3CCOCC3)cc12", "Potency": "inconclusive: 11.6 µM [cytotoxic, partial curve]"}, {"smiles": "CC(NC(=O)COC(=O)c1ccc(N2CCCC2=O)cc1)c1ccc(F)cc1", "note": "(centres undefined)", "Potency": "inconclusive: 18.4 µM [rising, partial curve, poor fit]"}, {"smiles": "COc1ccc(C(=O)O/N=C/c2c(C(F)(F)F)nn(C)c2SCc2ccccc2Cl)cc1", "Potency": "inconclusive: 18.4 µM [cytotoxic, single point]"}, {"smiles": "Cc1ccc(-c2nc3ccccc3[nH]2)cc1NC(=O)COc1ccc(Cl)cc1Cl", "Potency": "inconclusive: 20.6 µM [cytotoxic, single point]"}, {"smiles": "COc1cc(C(=O)Oc2ccccc2/C=N/NC(=O)c2ccc(Cl)cc2Cl)cc(OC)c1OC", "Potency": "inconclusive: 16.4 µM [cytotoxic, partial curve, poor fit]"}, {"smiles": "Cc1ccc(-c2[nH]n3c(=O)c4c(nc3c2C)CCCC4)cc1", "Potency": "inactive"}, {"smiles": "CC1CCCC(C)N1CCCNC(=O)Cn1ncc2c3ccccc3n(C)c2c1=O", "note": "(centres undefined)", "Potency": "inconclusive: 29.1 µM [rising, single point]"}, {"smiles": "COCc1cc(/C=N\\NC(=O)Cc2ccc(OC)cc2)ccc1OC", "Potency": "active: 23.1 µM"}, {"smiles": "O=C(C(Cl)Cl)N1CCN(Cc2ccc3c(c2)OCO3)CC1", "Potency": "inconclusive: 29.1 µM [rising, single point]"}, {"smiles": "COc1ccc(CCN2C(=O)c3[nH]nc(-c4ccccc4O)c3C2c2ccc(C)cc2)cc1OC", "note": "(centres undefined)", "Potency": "inconclusive: 18.4 µM [cytotoxic, single point]"}, {"smiles": "CCCOc1ccc(N2CC(C(=O)NCCc3ccc(OC)c(OC)c3)CC2=O)cc1", "note": "(centres undefined)", "Potency": "inconclusive: 29.1 µM [cytotoxic, partial curve, poor fit]"}, {"smiles": "CCN(CC(=O)Nc1cccc(OC)c1)C(=O)c1cccc(S(=O)(=O)N2CCc3ccccc32)c1", "Potency": "active: 18.4 µM"}, {"smiles": "COc1c(C)cc(Br)cc1C(=O)Nc1ccccc1N1CCN(C(=O)c2ccccc2)CC1", "Potency": "active: 23.1 µM"}, {"smiles": "COc1ccc2c(COC(=O)c3ccc(C)c(S(=O)(=O)N4CCOCC4)c3)cc(=O)oc2c1", "Potency": "inactive"}, {"smiles": "COc1ccc(-c2csc(C)n2)cc1OC", "Potency": "inconclusive: 23.1 µM [cytotoxic, single point]"}, {"smiles": "Cc1onc(-c2ccccc2)c1C(=O)Nc1ccc(S(=O)(=O)NC(C)(C)C)cc1", "Potency": "inactive"}, {"smiles": "Cc1nc(C)n(CCNS(=O)(=O)c2ccccc2)n1", "Potency": "inconclusive: 32.6 µM [rising, single point]"}, {"smiles": "COC(C(=O)Nc1cccc([N+](=O)[O-])c1)c1ccccc1", "note": "(centres undefined)", "Potency": "inconclusive: 29.1 µM [cytotoxic, single point]"}, {"smiles": "C=CCN1C(=O)C2(NC(=O)c3ccccc3N2)c2ccccc21", "note": "(centres undefined)", "Potency": "inconclusive: 29.1 µM [cytotoxic, single point]"}, {"smiles": "CC1CCc2[nH]c3ccc(C(=O)NCC4CCCO4)cc3c2C1", "note": "(centres undefined)", "Potency": "inactive"}, {"smiles": "Cc1c(C)c2cc(Cl)c(OCC(=O)NCCCn3ccnc3)cc2oc1=O", "Potency": "inactive"}, {"smiles": "Cn1nc(CC(=O)NC2CCCCCC2)c2ccccc2c1=O", "Potency": "inconclusive: 18.4 µM [cytotoxic, single point]"}, {"smiles": "Cc1ccc(NC(=O)C2CCCN2S(=O)(=O)c2cccc3nsnc23)c(Br)c1", "note": "(centres undefined)", "Potency": "inconclusive: 4.61 µM [cytotoxic, partial curve]"}, {"smiles": "Cc1c(NC(=O)COC(=O)/C=C/c2ccccc2Br)c(=O)n(-c2ccccc2)n1C", "Potency": "inactive"}, {"smiles": "O=C(Nc1nc2ccccc2n1CCN1CCCCC1)C1CCCCC1", "Potency": "inconclusive: 2.59 µM [cytotoxic, full curve]"}, {"smiles": "Cc1ccc2cccc(NC(=S)NC(=O)c3ccccc3)c2n1", "Potency": "inconclusive: 29.1 µM [cytotoxic, single point]"}, {"smiles": "CCOc1ccc(NC(=S)N2CCCN(Cc3cc(C)ccc3C)C2)cc1", "Potency": "inconclusive: 20.6 µM [cytotoxic, single point]"}, {"smiles": "C/C(=N\\NC(=O)c1ccc(N)cc1)C1CC1", "Potency": "inconclusive: 23.1 µM [rising, single point]"}, {"smiles": "CCc1c(C)nc2ncnn2c1N1CCCC(C(=O)NCCc2ccccc2)C1", "note": "(centres undefined)", "Potency": "active: 13 µM"}, {"smiles": "CCOc1ccc(NC(=S)NCCCc2ccccc2)cc1", "Potency": "inactive"}, {"smiles": "COc1ccc(/C(=C/Nc2cccc(Br)c2)C(C)=O)cc1OC", "Potency": "inconclusive: 6.51 µM [cytotoxic, partial curve, poor fit]"}, {"smiles": "COc1ccc2c(c1OC)C(=O)N1C2SC(C)(C)[C@H]1C(=O)NCC(C)C", "note": "(some centres undefined)", "Potency": "inactive"}, {"smiles": "Cc1cc(SCC(=O)NCc2ccccc2Cl)nc(=O)[nH]1", "Potency": "inactive"}, {"smiles": "Cc1cccc(-c2nc(C)c(CCNC(=O)C(=O)Nc3c(C)cc(C)cc3C)s2)c1", "Potency": "inconclusive: 5.8 µM [cytotoxic, partial curve, poor fit]"}, {"smiles": "COc1ccc(CNC(=O)c2ccc(NC(=O)N3CCCCc4ccccc43)cc2)c(OC)c1", "Potency": "inactive"}]}]}
